Source: patent US20240336900A1, “METHODS AND COMPOSITIONS RELATED TO MODIFIED METHYLTRANSFERASES AND ENGINEERED BIOSENSORS” (BOARD OF REGENTS, THE UNIVERSITY OF TEXAS SYSTEM, priority 2023, published 2024)
Substitutions are numbered along the chain they refer to. Numbers in names are those of the source. The name of at least one read-out is uncertain.

B1: Wild-type Nb4OMT: natural norbelladine 4′-O-Methyltransferase from Narcissus pseudonarcissus (protein)
chain: MGASIDDYSLVHKNILHSEDLLKYILETSAYPREHEQLKGLREVTEKHEWSSALVPADEGLFLSMLLKLMNAKRTIEIGVYTGYSLLTTALALPEDGKITAIDVNKSYYEIGLPFIQKAGVEHKINFIESEALPVLDQMLEEMKEEDLYDYAFVDADKSNYANYHERLVKLVRIGGAILYDNTLWYGSVAYPEYPGLHPEEEVARLSFRNLNTFLAADPRVEISQVSIGDGVTICRRLY
modifications: Description of sequence: Natural enzyme, norbelladine 4'-O-Methyltransferase
notes: natural norbelladine 4′-O-Methyltransferase from Narcissus pseudonarcissus
B2: A53M mutant: Nb4OMT variant with mutation A53M (protein)
chain: B1 chain with A53M
modifications: Description of sequence: Improved enzyme variant A53M
B3: E36P/G40E/A53M mutant: Nb4OMT variant with mutations E36P, G40E and A53M (protein)
chain: B1 chain with E36P, G40E, A53M

Experiment: Steady state kinetics of purified Nb4OMT variants
Type: biochemical
Settings: 3.5 nM enzyme, 500 μM SAM, 37° C., PBS pH 7.5
Procedure: Reactions for kinetics measurements were performed in triplicate for all enzyme variants. For each variant 1.5 ml reactions containing 3.5 nM of enzyme, 500 μM SAM, 2 mM CaCl2), and 15.625, 31.25, 62.5, 125, 250, or 500 μM norbelladine in PBS pH 7.5 were incubated at 37° C. for 4 hours. Every hour a 200 μl aliquot of each reaction was quenched by pipetting it into a 1.5 ml microcentrifuge tube with 20 μl of 2M HCl. The concentration of 4′-O-Methylnorbelladine was then determined using HPLC as described.
Kinetic data were fit in KinTek Explorer simulation and data fitting software v11 (Roy, 2018). The following minimal model was used as an input. Each line represents a step in the model and the forward reaction goes from left to right while the reverse reaction goes from right to left as written. • (1) E+S=ES • (2) ES=EP • (3) EP=E+P • (4) S=P2
3.5 nM enzyme and 15.625, 31.25, 62.5, 125, 250, and 500 M substrate. The output observable was defined as EP+P. Substrate oxidation was modeled in step (4) as irreversible with a best fit value from globally fitting data from all variants to derive k4=0.00547 min^−1.To get kout/Km and kcat: k−1, k−2, and k−3 were locked at 0 min-1 (irreversible reactions). k+3 was locked at 10,000 min-1 as to not limit the rate of turnover. k+1 and k+2 were used as variable parameters in the fitting. Under these conditions, k+2=kcat and k+1=kcat/Km. For estimates of 95% confidence intervals on kinetic parameters, confidence contour analysis was used with the FitSpace function in KinTek Explorer (Bhattacharya, 2015). Confidence contour plots are calculated by systematically varying a single rate constant and holding it fixed at a particular value while refitting the data, allowing other rate constants to float. The goodness of fit was scored by the resulting χ^2 value. The confidence interval is defined based on a threshold in χ^2 calculated from the F-distribution based on the number of data points and number of variable parameters to give the 95% confidence limits. […]
With B1 the kcal/Km was 19700 M⁻¹ s⁻¹. B2 showed a kcal/Km greater than 35000 M⁻¹ s⁻¹. Molecule B3 has a kcal/Km greater than 23300 M⁻¹ s⁻¹.
